Measurements reported in PubChem BioAssay AID652243 (Drosophila RNAi Screening Center, 2013)
The deposit covers about 24,000 reagents; this is a random part of those with a known target gene and a result. In the full data, 246 (1%) were called active. 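Plates not normalised; calls are printed but the firefly/Renilla ratio behind them is not deposited; fold cut for lowering reported inconsistently.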 The raw values are shown without normalisation. Reagents against one gene are numbered here. Names joined by + are all predicted targets of the reagent. No sequences are given here. Not stated in the record: the amount of reagent.

Test: 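Knock-downs that decrease or increase androgen receptor reporter signal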 (primary screen)
System: Drosophila S2R+ cells
Reagent: long dsRNA against Drosophila genes
Duration: 72 h (48 h, then 24 h hormone)
Conditions: synthetic androgen R1881 at 10 nM for 24 h
Detection: 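Firefly light from an androgen-responsive reporter and Renilla control light per well, raw and unnormalised, for each of two replicates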
Direction: firefly reporter light: higher = more light from androgen-responsive reporter; Renilla control light: higher = more constitutive control signal (cell number, transfection)
Call rule: 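Across duplicate plates, a knock-down whose log firefly/Renilla ratio shifted a set fold down or up from the GFP/LacZ control mean was a hit; the downward cut appears as both 1.5 and 3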
Calls: active = hit: reporter lowered or raised; inactive = no hit

{"target":"Dred","reagent no.":1,"firefly reporter light, replicate 1":2.99e5,"firefly reporter light, replicate 2":2.16e5,"Renilla control light, replicate 1":2.69e6,"Renilla control light, replicate 2":2.36e6,"Outcome":"inactive"}
{"target":"Dred","reagent no.":2,"firefly reporter light, replicate 1":3.29e5,"firefly reporter light, replicate 2":4.41e5,"Renilla control light, replicate 1":2.50e6,"Renilla control light, replicate 2":3.54e6,"Outcome":"inactive"}
{"target":"CG42353 + CG42354","reagent no.":1,"firefly reporter light, replicate 1":6.49e5,"firefly reporter light, replicate 2":7.89e5,"Renilla control light, replicate 1":1.93e6,"Renilla control light, replicate 2":1.76e6,"Outcome":"inactive"}
{"target":"CG42353 + CG42354","reagent no.":2,"firefly reporter light, replicate 1":4.62e5,"firefly reporter light, replicate 2":4.72e5,"Renilla control light, replicate 1":1.67e6,"Renilla control light, replicate 2":1.57e6,"Outcome":"inactive"}
{"target":"CG8508","reagent no.":1,"firefly reporter light, replicate 1":54363,"firefly reporter light, replicate 2":1.02e5,"Renilla control light, replicate 1":6.39e5,"Renilla control light, replicate 2":7.51e5,"Outcome":"inactive"}
{"target":"Bicra","reagent no.":1,"firefly reporter light, replicate 1":93736,"firefly reporter light, replicate 2":52955,"Renilla control light, replicate 1":1.60e6,"Renilla control light, replicate 2":1.79e6,"Outcome":"inactive"}
{"target":"Bicra","reagent no.":2,"firefly reporter light, replicate 1":1.05e6,"firefly reporter light, replicate 2":1.11e6,"Renilla control light, replicate 1":9.12e5,"Renilla control light, replicate 2":1.07e6,"Outcome":"inactive"}
{"target":"Orai","reagent no.":1,"firefly reporter light, replicate 1":1.03e6,"firefly reporter light, replicate 2":8.03e5,"Renilla control light, replicate 1":1.77e6,"Renilla control light, replicate 2":1.42e6,"Outcome":"inactive"}
{"target":"RpL6","reagent no.":1,"firefly reporter light, replicate 1":1.78e5,"firefly reporter light, replicate 2":1.74e5,"Renilla control light, replicate 1":1.30e6,"Renilla control light, replicate 2":2.08e6,"Outcome":"inactive"}
{"target":"RpL6","reagent no.":2,"firefly reporter light, replicate 1":2.14e5,"firefly reporter light, replicate 2":3.31e5,"Renilla control light, replicate 1":1.40e5,"Renilla control light, replicate 2":1.42e5,"Outcome":"inactive"}
{"target":"RpL6","reagent no.":3,"firefly reporter light, replicate 1":1.67e5,"firefly reporter light, replicate 2":2.53e5,"Renilla control light, replicate 1":4.34e5,"Renilla control light, replicate 2":3.07e5,"Outcome":"inactive"}
{"target":"E(spl)m3-HLH","reagent no.":1,"firefly reporter light, replicate 1":4.40e5,"firefly reporter light, replicate 2":8.45e5,"Renilla control light, replicate 1":1.40e6,"Renilla control light, replicate 2":2.46e6,"Outcome":"inactive"}
{"target":"E(spl)m3-HLH","reagent no.":2,"firefly reporter light, replicate 1":2.83e5,"firefly reporter light, replicate 2":6.79e5,"Renilla control light, replicate 1":9.30e5,"Renilla control light, replicate 2":1.39e6,"Outcome":"inactive"}
